From PMC12591123
These are yes or no findings as the source states them, for the method shown. In cells and extracts the contact can be indirect. Some binding calls cover weakened binding; strength is not graded here.

The chains behind the UniProt entries cited, without tags or fusion partners. Where a name states a change or a piece, a line headed by the entry shows the natural chain unless it says otherwise. Residues count along the entry.
UniProt P98161: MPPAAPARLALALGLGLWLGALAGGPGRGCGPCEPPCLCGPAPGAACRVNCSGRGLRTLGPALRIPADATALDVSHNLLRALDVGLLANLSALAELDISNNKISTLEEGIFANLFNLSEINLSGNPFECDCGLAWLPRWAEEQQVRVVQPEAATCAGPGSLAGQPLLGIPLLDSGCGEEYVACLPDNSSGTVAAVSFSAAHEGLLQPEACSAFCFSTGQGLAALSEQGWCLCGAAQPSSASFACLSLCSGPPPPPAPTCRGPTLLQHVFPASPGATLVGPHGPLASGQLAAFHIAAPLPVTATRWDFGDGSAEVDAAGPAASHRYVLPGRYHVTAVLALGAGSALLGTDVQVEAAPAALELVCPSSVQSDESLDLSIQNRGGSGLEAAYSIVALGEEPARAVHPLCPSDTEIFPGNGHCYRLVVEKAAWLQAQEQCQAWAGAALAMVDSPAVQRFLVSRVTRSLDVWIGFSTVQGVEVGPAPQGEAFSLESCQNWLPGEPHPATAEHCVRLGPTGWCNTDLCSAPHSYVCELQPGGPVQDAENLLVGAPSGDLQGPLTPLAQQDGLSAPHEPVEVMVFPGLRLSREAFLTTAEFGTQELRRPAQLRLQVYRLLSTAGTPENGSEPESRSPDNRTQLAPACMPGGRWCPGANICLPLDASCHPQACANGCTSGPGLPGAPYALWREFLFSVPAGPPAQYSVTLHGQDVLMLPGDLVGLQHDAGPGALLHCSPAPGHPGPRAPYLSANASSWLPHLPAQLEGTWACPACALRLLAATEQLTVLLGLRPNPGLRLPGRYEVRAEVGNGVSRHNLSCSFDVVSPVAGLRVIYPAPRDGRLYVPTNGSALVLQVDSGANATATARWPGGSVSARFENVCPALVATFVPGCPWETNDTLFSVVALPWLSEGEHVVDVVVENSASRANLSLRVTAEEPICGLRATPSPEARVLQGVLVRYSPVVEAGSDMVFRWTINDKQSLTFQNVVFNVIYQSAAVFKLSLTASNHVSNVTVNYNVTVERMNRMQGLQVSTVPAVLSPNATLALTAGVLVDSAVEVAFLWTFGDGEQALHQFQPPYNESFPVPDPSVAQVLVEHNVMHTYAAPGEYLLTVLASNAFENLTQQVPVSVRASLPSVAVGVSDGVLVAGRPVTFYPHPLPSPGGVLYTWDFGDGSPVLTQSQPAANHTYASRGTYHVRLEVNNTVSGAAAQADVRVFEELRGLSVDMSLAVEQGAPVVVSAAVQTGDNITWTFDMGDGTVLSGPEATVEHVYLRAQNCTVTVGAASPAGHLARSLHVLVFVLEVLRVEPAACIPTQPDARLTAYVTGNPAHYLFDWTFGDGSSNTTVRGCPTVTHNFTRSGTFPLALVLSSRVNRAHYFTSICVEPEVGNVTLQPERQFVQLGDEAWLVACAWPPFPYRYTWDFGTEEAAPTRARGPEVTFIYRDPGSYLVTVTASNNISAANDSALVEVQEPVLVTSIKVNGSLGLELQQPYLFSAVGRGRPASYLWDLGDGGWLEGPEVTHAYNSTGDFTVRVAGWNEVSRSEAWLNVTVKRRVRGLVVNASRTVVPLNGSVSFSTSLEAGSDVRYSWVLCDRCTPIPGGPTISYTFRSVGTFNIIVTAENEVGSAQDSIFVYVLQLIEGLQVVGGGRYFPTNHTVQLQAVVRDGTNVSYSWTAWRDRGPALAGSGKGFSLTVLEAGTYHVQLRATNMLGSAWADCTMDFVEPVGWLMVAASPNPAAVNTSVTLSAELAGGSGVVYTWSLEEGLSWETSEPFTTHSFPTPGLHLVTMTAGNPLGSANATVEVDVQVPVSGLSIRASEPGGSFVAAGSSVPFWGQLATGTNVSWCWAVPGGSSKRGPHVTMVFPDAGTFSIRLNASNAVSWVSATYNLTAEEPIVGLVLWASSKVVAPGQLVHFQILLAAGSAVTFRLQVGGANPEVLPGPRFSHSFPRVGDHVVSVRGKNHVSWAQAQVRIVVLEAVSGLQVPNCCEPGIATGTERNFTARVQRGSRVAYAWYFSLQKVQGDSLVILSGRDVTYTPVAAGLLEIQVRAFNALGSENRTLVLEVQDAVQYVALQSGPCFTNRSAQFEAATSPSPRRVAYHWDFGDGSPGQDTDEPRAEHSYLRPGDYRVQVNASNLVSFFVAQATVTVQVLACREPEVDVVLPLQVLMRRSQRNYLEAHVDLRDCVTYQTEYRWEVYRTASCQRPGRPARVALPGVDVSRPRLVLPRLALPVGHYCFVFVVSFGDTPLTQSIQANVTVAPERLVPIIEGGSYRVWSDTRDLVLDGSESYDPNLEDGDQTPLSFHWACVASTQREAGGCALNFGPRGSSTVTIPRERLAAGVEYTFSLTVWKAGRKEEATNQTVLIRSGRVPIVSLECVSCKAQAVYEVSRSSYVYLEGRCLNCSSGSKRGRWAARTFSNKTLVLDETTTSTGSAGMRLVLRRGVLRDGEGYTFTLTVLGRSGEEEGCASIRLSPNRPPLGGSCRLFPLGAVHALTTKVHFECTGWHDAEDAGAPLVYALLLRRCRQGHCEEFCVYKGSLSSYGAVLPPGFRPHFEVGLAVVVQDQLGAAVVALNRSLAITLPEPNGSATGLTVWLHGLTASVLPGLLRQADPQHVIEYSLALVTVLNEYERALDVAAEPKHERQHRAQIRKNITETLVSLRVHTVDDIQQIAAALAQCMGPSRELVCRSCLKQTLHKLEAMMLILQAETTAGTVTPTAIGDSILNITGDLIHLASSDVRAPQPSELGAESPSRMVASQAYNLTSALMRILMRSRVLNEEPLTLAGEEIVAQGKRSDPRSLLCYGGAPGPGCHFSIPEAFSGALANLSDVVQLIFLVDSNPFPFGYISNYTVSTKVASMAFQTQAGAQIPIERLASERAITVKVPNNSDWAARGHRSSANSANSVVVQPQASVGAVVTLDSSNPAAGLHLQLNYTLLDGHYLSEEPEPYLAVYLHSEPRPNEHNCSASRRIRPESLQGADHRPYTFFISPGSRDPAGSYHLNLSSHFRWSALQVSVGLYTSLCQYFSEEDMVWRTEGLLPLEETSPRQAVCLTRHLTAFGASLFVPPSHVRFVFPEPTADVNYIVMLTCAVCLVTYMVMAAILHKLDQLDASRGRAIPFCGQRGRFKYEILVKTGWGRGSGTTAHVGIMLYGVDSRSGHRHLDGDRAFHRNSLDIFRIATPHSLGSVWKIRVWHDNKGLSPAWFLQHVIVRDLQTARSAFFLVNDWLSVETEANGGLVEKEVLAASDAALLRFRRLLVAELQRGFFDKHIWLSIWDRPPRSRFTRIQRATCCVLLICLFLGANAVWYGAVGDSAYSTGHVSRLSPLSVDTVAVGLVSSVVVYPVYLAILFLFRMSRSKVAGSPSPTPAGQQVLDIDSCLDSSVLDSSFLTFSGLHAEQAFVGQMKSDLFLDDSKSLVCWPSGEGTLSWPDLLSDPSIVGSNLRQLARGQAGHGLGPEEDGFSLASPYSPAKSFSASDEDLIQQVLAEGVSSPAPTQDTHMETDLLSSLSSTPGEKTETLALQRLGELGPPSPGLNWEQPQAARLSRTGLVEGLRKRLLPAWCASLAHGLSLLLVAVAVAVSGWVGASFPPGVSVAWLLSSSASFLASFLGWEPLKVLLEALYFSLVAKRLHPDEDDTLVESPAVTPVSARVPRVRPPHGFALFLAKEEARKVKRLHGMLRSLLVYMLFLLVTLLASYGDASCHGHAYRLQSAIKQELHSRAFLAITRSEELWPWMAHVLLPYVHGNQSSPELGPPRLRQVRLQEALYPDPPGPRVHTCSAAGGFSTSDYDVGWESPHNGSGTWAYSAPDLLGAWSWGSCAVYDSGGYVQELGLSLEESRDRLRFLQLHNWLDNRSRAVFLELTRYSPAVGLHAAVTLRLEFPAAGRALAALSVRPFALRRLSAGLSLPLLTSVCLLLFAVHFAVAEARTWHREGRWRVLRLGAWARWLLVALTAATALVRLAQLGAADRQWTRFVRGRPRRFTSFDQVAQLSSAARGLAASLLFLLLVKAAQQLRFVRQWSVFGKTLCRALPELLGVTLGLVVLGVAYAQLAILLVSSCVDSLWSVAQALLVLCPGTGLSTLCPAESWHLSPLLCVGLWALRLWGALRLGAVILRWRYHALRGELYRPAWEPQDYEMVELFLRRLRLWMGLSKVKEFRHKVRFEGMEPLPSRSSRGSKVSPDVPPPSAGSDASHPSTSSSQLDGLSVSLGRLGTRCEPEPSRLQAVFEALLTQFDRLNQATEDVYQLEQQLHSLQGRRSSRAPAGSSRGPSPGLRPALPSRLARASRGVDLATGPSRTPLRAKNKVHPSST
polycystin‐1, full length (pCI‐PC1‐Flag): residues 24-4303 of P98161
HA‐(3048‐3703) fragment of polycystin‐1: residues 3048-3703 of P98161
HA‐(3703‐4303) fragment of polycystin‐1: residues 3703-4303 of P98161
UniProt Q9Y4D1: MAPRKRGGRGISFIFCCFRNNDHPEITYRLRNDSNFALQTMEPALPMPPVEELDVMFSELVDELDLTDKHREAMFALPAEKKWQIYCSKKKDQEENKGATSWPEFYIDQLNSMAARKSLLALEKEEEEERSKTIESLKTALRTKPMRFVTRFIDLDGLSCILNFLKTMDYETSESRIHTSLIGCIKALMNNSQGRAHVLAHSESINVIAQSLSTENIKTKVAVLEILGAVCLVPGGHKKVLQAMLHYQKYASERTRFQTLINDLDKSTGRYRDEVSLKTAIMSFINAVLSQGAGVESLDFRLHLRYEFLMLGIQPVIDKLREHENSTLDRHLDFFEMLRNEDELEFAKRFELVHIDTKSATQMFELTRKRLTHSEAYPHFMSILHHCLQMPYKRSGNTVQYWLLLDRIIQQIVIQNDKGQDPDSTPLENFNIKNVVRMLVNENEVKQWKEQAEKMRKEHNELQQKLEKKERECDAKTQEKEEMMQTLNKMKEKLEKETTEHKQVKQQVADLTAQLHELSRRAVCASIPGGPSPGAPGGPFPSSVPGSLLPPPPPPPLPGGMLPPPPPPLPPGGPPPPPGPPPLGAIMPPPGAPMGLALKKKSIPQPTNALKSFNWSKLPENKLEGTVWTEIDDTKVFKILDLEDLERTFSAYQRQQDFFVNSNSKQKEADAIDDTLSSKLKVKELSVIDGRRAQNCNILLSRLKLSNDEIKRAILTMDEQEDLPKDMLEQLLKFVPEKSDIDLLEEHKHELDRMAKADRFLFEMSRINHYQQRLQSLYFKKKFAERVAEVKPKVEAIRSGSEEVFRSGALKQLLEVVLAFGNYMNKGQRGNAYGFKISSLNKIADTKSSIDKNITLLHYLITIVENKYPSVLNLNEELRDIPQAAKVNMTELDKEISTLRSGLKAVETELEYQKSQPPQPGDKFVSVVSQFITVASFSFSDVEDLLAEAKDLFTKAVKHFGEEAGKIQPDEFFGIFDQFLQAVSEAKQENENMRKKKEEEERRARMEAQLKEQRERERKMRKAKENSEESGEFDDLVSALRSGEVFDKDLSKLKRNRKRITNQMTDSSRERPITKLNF

Key:
[1] = target: HA‐(3703‐4303) fragment of polycystin‐1 (human) (UniProt P98161); experiment: co-IP; HEK‐293T cells expressing HA‐ or FLAG‐tagged constructs; IP lysis buffer, antibody overnight at 4 °C, protein A/G agarose beads 2 h at room temperature; blots with anti‐FLAG and anti‐HA
[2] = target: HA‐(3048‐3703) fragment of polycystin‐1 (human) (UniProt P98161); experiment: as above
[3] = target: polycystin‐1, full length (pCI‐PC1‐Flag) (human) (UniProt P98161); experiment: co-IP; lysates of HEK‐293T cells overexpressing polycystin‐1, immunoprecipitated with anti‐polycystin‐1 and probed with anti‐Daam1; IP lysis buffer, antibody overnight at 4 °C, protein A/G agarose beads 2 h at room temperature

For “disheveled‐associated activator of morphogenesis 1 (Daam1) (from UniProt Q9Y4D1 1-1078)”, which binding [1] is on record?
The binding was “binds”.

And the binding [2]?
Its binding is “no binding”.

And the binding [3]?
Its binding is “binds”.
